# Reference: publication PMC4940160, “Architecture and RNA binding of the human negative elongation factor”
# Sequences of proteins named here, by UniProt entry; tags and fusion partners are left off. A change or cut given only in a name is not applied to a line headed by its entry. A line that says so, or that is headed by a name, gives the form on record, which may keep a tag or linker. Residues count along the entry.
# NELF-A (6–188) (Q9H3P2, residues 6-188): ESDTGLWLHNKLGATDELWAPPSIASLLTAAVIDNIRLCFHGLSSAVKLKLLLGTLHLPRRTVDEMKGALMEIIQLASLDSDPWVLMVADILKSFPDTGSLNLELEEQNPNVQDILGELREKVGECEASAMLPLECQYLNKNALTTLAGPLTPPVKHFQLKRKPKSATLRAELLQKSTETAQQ
# NELF-A (6–188) with patch 1 and patch 4 mutations (Q9H3P2, form named): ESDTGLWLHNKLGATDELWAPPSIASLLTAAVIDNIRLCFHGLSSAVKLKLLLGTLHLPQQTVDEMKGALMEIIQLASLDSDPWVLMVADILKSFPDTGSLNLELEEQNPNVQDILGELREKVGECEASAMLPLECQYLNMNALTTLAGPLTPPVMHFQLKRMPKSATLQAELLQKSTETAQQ
# NELF-A (6–188) with patch 4 mutations (Q9H3P2, form named): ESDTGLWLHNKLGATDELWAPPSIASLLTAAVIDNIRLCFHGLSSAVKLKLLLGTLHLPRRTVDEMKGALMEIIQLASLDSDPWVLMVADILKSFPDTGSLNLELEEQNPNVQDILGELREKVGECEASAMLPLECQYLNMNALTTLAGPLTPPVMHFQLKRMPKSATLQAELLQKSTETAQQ
# UniProt Q8IXH7: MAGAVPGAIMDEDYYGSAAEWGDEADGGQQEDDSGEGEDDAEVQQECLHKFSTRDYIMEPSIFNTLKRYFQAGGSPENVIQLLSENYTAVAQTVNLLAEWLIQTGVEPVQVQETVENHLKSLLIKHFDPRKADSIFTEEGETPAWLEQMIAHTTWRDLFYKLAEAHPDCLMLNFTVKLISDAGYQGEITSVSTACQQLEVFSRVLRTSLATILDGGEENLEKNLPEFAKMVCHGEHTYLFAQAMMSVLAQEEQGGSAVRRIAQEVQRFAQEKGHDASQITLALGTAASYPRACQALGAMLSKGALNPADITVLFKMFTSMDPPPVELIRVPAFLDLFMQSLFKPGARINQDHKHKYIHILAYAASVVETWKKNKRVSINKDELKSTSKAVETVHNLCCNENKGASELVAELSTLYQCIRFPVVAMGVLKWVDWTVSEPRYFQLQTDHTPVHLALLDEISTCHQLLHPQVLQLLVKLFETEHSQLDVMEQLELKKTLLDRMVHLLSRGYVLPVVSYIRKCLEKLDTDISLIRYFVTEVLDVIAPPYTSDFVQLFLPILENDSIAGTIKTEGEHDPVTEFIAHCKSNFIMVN
# NELF-C (183–590) with patch 1, 2 and 4 mutations (Q8IXH7, form named): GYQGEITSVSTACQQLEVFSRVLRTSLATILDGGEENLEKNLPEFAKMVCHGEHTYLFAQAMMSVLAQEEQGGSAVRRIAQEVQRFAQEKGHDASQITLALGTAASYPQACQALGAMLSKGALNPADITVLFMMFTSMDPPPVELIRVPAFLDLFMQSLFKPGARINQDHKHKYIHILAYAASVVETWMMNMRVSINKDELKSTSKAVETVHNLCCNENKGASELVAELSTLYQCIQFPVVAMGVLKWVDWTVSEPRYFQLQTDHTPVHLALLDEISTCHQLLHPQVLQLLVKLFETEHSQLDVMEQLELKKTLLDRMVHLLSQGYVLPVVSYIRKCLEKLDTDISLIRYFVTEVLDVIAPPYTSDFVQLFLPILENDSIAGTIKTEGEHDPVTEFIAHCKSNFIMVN
# NELF-C (183–590) with patch 1, 2, 3 and 4 mutations (Q8IXH7, form named): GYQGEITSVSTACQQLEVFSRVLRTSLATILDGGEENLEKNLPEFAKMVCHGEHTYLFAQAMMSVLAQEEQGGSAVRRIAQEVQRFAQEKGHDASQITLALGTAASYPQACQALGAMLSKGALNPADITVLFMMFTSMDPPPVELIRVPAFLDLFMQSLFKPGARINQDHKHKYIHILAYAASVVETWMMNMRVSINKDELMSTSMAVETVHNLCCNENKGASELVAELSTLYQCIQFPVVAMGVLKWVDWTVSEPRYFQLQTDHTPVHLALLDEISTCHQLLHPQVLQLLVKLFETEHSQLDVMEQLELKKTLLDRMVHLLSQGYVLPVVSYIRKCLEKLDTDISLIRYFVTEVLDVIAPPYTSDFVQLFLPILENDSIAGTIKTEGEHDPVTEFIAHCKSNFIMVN
# NELF-C (183–590) with patch 2, 3 and 4 mutations (Q8IXH7, form named): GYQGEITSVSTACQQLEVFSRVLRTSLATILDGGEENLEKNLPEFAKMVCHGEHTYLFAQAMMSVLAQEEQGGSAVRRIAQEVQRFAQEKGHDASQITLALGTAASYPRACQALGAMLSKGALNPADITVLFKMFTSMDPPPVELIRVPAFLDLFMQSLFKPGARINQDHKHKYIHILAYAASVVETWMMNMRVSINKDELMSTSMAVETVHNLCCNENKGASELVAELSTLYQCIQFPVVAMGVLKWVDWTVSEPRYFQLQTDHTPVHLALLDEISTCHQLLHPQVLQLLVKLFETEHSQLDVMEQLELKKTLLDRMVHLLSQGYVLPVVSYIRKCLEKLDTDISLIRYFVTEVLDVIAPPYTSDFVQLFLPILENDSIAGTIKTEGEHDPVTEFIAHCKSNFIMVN
# Results are given in words; binding and its absence hold for the method and conditions named. Some entries that bind do so weakly or less than the wild type.
# Legend:
# [1] = molecular target: NELF-A (6–188) (human) (UniProt Q9H3P2); assay: co-purification after bacterial co-expression; NELF-A and NELF-C variants co-expressed in E. coli; Ni-NTA by the His6 tag on NELF-A (6–188), thrombin, anion exchange, Superose 6 size exclusion; 4°C, 150 mM NaCl, 40 mM Na-HEPES pH 7.4, 2 mM DTT
# [2] = molecular target: NELF-A (6–188) (human) (UniProt Q9H3P2); assay: crystal structure; hanging-drop vapor diffusion, 14–14.5% PEG 3350, 200 mM sodium malonate pH 6.8–7.0; SIRAS; 2.8Å; both purified
# [3] = molecular target: NELF-A (6–188) with patch 1 and patch 4 mutations (human) (UniProt Q9H3P2); assay: co-purification after bacterial co-expression; NELF-A and NELF-C variants co-expressed in E. coli; Ni-NTA by the His6 tag on NELF-A (6–188), thrombin, anion exchange, Superose 6 size exclusion; 4°C, 150 mM NaCl, 40 mM Na-HEPES pH 7.4, 2 mM DTT
# [4] = molecular target: NELF-A (6–188) with patch 4 mutations (human) (UniProt Q9H3P2); assay: as above
Substance,binding [1],binding [3],further results
"NELF-C (183–590) with patch 1, 2 and 4 mutations (from UniProt Q8IXH7 183-590) (domain or fragment)",–,binds,–
"NELF-C (183–590) with patch 1, 2, 3 and 4 mutations (from UniProt Q8IXH7 183-590) (domain or fragment)",–,binds,–
"NELF-C (183–590) with patch 2, 3 and 4 mutations (from UniProt Q8IXH7 183-590) (domain or fragment)",–,–,binding [4]: binds

# The next lines start with results.
binding [1],binding [3],Substance,further results
binds,–,NELF-C (36–590) (from UniProt Q8IXH7 36-590) (domain or fragment),–
binds,–,NELF-C (183–590) (from UniProt Q8IXH7 183-590) (domain or fragment),binding [2]: binds
